Data published in patent publication US10087187B2, “Imidazopyridazine derivatives as PI3KB inhibitors” (Janssen Pharmaceutica NV, priority 2014, dated 2018).
The match of structure and compound is tentative.

Sequences of proteins named here, by UniProt entry; tags and fusion partners are left off. A change or cut given only in a name is not applied to a line headed by its entry.
UniProt P42336, whole entry: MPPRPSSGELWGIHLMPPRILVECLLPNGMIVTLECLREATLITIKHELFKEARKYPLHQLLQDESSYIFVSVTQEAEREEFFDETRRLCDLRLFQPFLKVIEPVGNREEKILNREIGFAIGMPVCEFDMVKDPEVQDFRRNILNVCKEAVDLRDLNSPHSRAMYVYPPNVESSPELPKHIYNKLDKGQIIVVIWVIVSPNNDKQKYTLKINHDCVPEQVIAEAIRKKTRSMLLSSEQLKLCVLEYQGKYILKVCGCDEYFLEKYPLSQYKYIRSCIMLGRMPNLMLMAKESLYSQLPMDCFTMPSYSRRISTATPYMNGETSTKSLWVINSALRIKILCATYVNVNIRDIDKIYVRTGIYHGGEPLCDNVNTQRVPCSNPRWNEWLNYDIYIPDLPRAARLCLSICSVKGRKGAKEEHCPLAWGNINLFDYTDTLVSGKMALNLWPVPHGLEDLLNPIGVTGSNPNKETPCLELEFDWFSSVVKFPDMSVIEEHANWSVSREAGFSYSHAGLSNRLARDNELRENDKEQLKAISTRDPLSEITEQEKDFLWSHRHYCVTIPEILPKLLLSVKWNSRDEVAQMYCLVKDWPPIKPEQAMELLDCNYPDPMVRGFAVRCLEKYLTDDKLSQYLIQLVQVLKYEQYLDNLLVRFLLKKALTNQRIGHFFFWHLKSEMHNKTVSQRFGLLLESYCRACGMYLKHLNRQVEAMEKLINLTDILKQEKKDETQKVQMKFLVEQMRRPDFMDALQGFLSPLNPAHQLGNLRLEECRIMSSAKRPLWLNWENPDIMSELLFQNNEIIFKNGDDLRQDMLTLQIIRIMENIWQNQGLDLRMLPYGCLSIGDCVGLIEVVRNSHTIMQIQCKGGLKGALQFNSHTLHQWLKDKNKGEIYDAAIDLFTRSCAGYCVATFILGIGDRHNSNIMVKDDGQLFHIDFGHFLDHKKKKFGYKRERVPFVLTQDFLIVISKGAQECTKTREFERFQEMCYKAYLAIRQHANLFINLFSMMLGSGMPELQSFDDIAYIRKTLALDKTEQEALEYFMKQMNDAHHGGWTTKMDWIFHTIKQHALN
UniProt P48736, whole entry: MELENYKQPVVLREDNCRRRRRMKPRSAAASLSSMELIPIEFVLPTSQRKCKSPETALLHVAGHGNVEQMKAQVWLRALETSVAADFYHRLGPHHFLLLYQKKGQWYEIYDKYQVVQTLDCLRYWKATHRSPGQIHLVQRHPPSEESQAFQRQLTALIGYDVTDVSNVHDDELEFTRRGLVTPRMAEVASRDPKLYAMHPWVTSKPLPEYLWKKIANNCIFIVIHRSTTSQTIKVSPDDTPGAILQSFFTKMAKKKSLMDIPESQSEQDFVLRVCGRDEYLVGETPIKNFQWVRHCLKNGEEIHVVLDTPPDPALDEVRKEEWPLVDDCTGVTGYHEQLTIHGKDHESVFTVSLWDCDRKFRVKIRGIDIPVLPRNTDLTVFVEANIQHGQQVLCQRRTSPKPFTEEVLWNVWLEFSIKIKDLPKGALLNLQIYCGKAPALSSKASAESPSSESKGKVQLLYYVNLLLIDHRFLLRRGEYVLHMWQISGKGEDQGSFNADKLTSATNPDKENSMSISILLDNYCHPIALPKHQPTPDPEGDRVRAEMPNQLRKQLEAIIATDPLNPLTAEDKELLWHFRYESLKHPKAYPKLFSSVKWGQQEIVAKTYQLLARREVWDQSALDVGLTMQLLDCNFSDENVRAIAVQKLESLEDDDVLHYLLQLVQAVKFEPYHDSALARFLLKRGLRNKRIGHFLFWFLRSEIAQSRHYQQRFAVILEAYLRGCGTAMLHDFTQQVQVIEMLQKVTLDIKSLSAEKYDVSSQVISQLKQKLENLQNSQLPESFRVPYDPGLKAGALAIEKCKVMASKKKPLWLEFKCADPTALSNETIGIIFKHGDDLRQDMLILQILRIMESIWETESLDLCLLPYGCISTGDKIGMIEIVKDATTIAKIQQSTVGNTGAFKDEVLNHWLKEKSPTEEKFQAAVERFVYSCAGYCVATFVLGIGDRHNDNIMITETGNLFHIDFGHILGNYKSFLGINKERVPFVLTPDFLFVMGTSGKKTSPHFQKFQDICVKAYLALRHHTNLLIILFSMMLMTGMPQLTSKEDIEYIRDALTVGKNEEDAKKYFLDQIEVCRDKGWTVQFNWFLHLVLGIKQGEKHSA
UniProt P42338, whole entry: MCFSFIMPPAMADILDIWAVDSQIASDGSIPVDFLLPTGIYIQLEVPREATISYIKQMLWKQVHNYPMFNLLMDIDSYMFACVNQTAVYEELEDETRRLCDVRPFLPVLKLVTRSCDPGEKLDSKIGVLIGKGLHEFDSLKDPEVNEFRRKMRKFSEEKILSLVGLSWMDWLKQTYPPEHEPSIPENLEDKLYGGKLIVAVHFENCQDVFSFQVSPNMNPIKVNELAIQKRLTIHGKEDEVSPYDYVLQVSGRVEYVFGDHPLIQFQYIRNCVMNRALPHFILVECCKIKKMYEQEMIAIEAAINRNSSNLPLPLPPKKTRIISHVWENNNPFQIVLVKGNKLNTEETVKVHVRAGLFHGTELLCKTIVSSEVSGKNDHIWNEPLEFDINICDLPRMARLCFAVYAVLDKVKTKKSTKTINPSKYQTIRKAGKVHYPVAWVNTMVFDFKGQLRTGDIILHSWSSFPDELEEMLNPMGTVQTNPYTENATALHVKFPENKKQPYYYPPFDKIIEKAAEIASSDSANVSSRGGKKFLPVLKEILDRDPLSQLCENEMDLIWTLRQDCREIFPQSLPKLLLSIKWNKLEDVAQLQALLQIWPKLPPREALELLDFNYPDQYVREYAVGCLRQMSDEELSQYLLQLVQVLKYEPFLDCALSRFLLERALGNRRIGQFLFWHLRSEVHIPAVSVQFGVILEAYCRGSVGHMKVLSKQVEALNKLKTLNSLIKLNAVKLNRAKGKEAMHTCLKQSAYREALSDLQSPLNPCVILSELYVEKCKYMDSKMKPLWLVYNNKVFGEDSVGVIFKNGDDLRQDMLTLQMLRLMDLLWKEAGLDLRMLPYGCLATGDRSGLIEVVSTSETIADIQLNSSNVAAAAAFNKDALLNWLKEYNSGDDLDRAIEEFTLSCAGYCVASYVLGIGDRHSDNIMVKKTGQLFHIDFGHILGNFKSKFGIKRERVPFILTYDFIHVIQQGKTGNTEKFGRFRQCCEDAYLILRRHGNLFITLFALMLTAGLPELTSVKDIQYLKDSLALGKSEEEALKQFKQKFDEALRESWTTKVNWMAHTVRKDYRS
UniProt O00329, whole entry: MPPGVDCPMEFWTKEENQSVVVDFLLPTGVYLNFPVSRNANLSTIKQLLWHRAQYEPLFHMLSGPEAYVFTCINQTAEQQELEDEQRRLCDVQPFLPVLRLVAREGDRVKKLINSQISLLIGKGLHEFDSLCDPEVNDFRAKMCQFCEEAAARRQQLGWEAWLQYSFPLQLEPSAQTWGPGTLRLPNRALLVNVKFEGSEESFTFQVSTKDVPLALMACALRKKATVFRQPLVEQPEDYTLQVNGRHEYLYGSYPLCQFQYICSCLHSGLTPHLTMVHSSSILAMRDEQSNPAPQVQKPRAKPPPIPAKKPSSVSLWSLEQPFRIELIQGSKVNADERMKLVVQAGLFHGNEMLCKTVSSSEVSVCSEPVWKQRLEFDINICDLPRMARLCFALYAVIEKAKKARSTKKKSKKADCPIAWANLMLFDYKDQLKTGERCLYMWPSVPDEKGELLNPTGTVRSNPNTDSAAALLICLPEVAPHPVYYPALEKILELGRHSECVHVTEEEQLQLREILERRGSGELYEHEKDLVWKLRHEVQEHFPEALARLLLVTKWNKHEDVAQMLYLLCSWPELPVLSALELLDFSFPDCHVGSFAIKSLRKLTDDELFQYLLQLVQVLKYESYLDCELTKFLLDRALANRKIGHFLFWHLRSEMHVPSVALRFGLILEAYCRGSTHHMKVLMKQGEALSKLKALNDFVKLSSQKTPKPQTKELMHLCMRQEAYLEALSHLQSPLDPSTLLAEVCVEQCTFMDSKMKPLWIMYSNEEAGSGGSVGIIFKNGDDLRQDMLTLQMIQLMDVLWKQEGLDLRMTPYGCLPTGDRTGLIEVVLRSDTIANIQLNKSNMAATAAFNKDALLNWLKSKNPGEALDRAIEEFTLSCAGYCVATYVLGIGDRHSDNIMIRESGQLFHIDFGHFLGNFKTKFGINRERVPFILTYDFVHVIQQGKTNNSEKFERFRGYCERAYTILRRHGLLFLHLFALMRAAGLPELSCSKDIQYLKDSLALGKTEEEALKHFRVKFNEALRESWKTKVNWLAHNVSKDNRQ

Legend:
[1] = test system: Akt phosphorylated at Thr308 in PC-3 cells; assay: Cellular assay: phosphorylation of Akt (Thr308) in PC-3 cells, MSD ELISA; conditions: read-out: IC50 pAkt_Thr308, 60 min incubation with compound, tested form: 1.9 HCl 0.89 H2O
[2] = target: PIK3Cα_h (Homo sapiens (Human), UniProt P42336); assay: KINOMEscan enzyme binding assay, PIK3Cα; conditions: read-out: Kd PIK3Cα_h, DiscoveRx, tested form: 1.9 HCl 0.89 H2O
[3] = target: PIK3Cγ_h (Homo sapiens (Human), UniProt P48736); assay: KINOMEscan enzyme binding assay, PIK3Cγ; conditions: read-out: Kd PIK3Cγ_h, DiscoveRx, tested form: 1.9 HCl 0.89 H2O
[4] = target: PIK3Cβ_h (Homo sapiens (Human), UniProt P42338); assay: KINOMEscan enzyme binding assay, PIK3Cβ; conditions: read-out: Kd PIK3Cβ_h, DiscoveRx, tested form: 1.9 HCl 0.89 H2O
[5] = test system: Akt phosphorylated at Ser473 in PC-3 cells; assay: Cellular assay: phosphorylation of Akt (Ser473) in PC-3 cells, MSD ELISA; conditions: read-out: IC50 pAkt_S473, 60 min incubation with compound, tested form: 1.9 HCl 0.89 H2O
[6] = target: PIK3Cδ_h (Homo sapiens (Human), UniProt O00329); assay: KINOMEscan enzyme binding assay, PIK3Cδ; conditions: read-out: Kd PIK3Cδ_h, DiscoveRx, tested form: 1.9 HCl 0.89 H2O
[7] = target: MTOR_h (Homo sapiens (Human), UniProt P42345); assay: KINOMEscan enzyme binding assay, MTOR; conditions: read-out: Kd MTOR_h, DiscoveRx, tested form: 1.9 HCl 0.89 H2O

SMILES: Cc1c(Cc2c(COC(=O)C3(N)CC3)nc3c(N)cc(N4CCOCC4)nn23)cccc1C(F)(F)F
- IC50 [1]: 81 nM
- Kd [2]: 22200 nM
- Kd [3]: > 30200 nM
- Kd [4]: 2.1 nM
- IC50 [5]: 159 nM
- Kd [6]: 309 nM
- Kd [7]: > 28200 nM
